About 22,000 (6.9%) of roughly 320,000 compounds were called active. Inconclusive means that the source gave no clear call. Such entries were picked first, then a sample of the others. Calls follow the shape of the dose curve; as a rule, active = well fitted inhibition curve with a large enough effect; inconclusive = small, poorly fitted or top-dose-only effect, or another doubt; inactive = no such curve, though single readings can be large or run the other way. Potencies of inconclusive entries are doubtful fits and often do not repeat.
assay: Primary qHTS for delayed death inhibitors of the malarial parasite plastid, 96 hour incubation; conditions: P. falciparum luciferase reporter growth; series mostly up to 28.7 µM; activity change, negative = inhibition: at the top concentration
Method in brief: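 P. falciparum expressing integrated firefly luciferase, in erythrocytes at 2% hematocrit, 0.05% parasitemia, incubated with compounds 96 h at 37 C, 5% CO2. Growth inhibition read as loss of luminescence; two-generation exposure targets delayed-death apicoplast inhibitors.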
% is scaled to controls: 0 for no effect and ±100 for the full control effect; potency is read from the fitted curve at half-maximal effect.

Q: For `COc1cccc(NC(=O)c2ccc(CN3CCN(c4ccccc4)CC3)cc2)c1`, which “activity change, negative = inhibition” value is on record?
A: inactive: 41.1%

Q: Which Potency does the source give for `CCOC(=O)C1CCCN(C(=O)c2cc(-c3ccncc3)nc3ccccc23)C1` (centres undefined) here?
A: inconclusive: 13.1 µM [inhibitor, single point]

Q: For `O=c1c(-c2ccccc2Cl)c[nH]n1-c1ccccc1`, which Potency is on record?
A: inconclusive: 18.5 µM [inhibitor, single point]

Q: With `COc1ncc(-c2ccc3c(c2)S(=O)(=O)c2cccc(C(=O)NCc4ccco4)c2C3=O)cn1` as the molecule, how does the Potency read?
A: inconclusive: 18.5 µM [inhibitor, single point]

Q: For `CN(C(=O)CSc1nnc(C2CC2)n1C1CC1)C1(C#N)CCCCC1`, which “activity change, negative = inhibition” value is on record?
A: inactive: 4.57%

Q: Which Potency does the source give for `CCCN(CCC)C(=O)COc1cc(=O)n(CC)c2ccccc12` here?
A: inconclusive: 1.04 µM [inhibitor, partial curve, poor fit]

Q: For `COc1cccc(C(=O)Nc2ccc3[nH]c(=O)[nH]c3c2)c1OC`, which “activity change, negative = inhibition” value is on record?
A: inactive: 50.8%

Q: For `CCOc1ccc2[nH]c(=O)c(CN(CCO)C(=O)CC)cc2c1`, which Potency is on record?
A: inconclusive: 0.0021 µM [inhibitor, full curve, poor fit]

Q: For `CN(NC(=O)c1ccccc1F)c1nc(C(F)(F)F)nc2ccccc12`, which Potency is on record?
A: active: 11.7 µM

Q: Which Potency does the source give for `CCOc1ccccc1C(=O)Nc1c[nH]c(=O)[nH]c1=O` here?
A: inconclusive: 18.5 µM [inhibitor, single point]

Q: Which Potency does the source give for `O=C(CN1C(=O)C2C3C=CC(C3)C2C1=O)Nc1ccc(S(=O)(=O)Nc2nccs2)cc1` (centres undefined) here?
A: inconclusive: 16.5 µM [inhibitor, partial curve, poor fit]

Q: Which Potency does the source give for `CC1CCCN(C(=O)COc2ccc(NC(=O)c3cccs3)cc2)C1` (centres undefined) here?
A: inconclusive: 18.5 µM [inhibitor, single point]

Q: With `COc1ccccc1Cn1c(=O)[nH]c2cccnc21` as the molecule, how does the Potency read?
A: inconclusive: 10.4 µM [inhibitor, single point]

Q: Which Potency does the source give for `CCCCOc1ccc(S(=O)(=O)N2CCN(c3ccc(N4CCN(CC)CC4)nn3)CC2)cc1` here?
A: inconclusive: 0.37 µM [inhibitor, full curve]

Q: For `COc1ccc(C(=O)N=C2SC3CS(=O)(=O)CC3N2Cc2ccc(OC)c(OC)c2)cc1` (centres undefined), which Potency is on record?
A: inconclusive: 8.28 µM [inhibitor, partial curve, poor fit]

Q: With `CSc1cccc(NC(=S)N(Cc2ccc(C)cc2)Cc2cccnc2)c1` as the molecule, how does the Potency read?
A: inconclusive: 18.5 µM [inhibitor, single point]

Q: With `CCCC(=O)Nc1c(C)nn(C(=O)CCC)c1C` as the molecule, how does the “activity change, negative = inhibition” value read?
A: inactive: -25.2%

Q: Which Potency does the source give for `Clc1ccc(C2[C@H]3CN(Cc4cccnc4)[C@H](c4ccccc4)C34CC2(c2ccccc2)C4)cn1` (some centres undefined) here?
A: active: 8.28 µM

Q: With `O=C1C(c2ccccc2)NC(=S)N1C1CCCCC1` (centres undefined) as the molecule, how does the Potency read?
A: inconclusive: 11.7 µM [inhibitor, partial curve, poor fit]
